Source: article doi:10.1101/2024.04.22.590536 (bioRxiv, 2024)
Results are given in words; binding and its absence hold for the method and conditions named. Some binding calls cover weakened binding; strength is not graded here. Sequences can lack the tags named with a protein.

Columns and labels:
[1] = molecular target: T1, Ckb2 fused to the GAL4 DNA binding domain (S. cerevisiae) (UniProt P38930); test: two-hybrid
T1 sequence: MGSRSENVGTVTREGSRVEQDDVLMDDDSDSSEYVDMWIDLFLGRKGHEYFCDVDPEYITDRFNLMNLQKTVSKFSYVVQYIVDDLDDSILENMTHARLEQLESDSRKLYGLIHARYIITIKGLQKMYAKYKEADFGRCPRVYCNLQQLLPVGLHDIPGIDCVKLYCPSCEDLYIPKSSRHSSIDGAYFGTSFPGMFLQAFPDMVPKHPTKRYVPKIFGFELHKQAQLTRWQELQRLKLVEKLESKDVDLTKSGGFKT

[2] = molecular target: T2, Mpp10 fused to the GAL4 DNA binding domain (S. cerevisiae) (UniProt P47083); test: two-hybrid
T2 sequence: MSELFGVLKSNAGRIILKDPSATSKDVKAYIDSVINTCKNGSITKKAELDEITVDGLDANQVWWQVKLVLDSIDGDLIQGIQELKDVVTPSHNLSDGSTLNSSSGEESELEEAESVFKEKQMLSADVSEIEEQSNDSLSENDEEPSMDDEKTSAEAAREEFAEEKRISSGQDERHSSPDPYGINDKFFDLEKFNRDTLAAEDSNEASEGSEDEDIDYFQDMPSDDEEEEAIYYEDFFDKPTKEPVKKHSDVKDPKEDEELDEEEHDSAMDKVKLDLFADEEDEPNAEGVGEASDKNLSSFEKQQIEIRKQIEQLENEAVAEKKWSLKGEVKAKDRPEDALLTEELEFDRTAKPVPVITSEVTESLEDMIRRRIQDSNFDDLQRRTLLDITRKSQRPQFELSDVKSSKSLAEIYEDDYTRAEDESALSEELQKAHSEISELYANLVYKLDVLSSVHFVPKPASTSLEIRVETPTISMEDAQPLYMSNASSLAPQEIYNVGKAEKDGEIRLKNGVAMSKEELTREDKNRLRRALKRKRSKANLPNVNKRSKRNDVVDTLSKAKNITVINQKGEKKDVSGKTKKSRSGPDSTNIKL

B1: Stm1 fused to the GAL4 activation domain (protein, UniProt P39015 1-273)
chain: MSNPFDLLGNDVEDADVVVLPPKEIVKSNTSSKKADVPPPSADPSKARKNRPRPSGNEGAIRDKTAGRRNNRSKDVTDSATTKKSNTRRATDRHSRTGKTDTKKKVNQGWGDDKKELSAEKEAQADAAAEIAEDAAEAEDAGKPKTAQLSLQDYLNQQANNQFNKVPEAKKVELDAERIETAEKEAYVPATKVKNVKSKQLKTKEYLEFDATFVESNTRKNFGDRNNNSRNNFNNRRGGRGARKGNNTANATNSANTVQKNRNIDVSNLPSLA
B1 was tested, and the binding [1] was “binds” and the binding [2] was “binds”.
